Record: PubChem BioAssay AID1259425 (University of Nebraska Medical Center, 2018)
Assay: 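Find knockdowns that reproduce the gene expression pattern seen when KSR1 is lost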 (primary screen). Cells: HCT116 human colon cancer cells. Reagent: siRNA pool against human genes, 50 nM siRNA. Detection: 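After 50 nM siRNA pool, branched-DNA assay measures six marker transcripts per well, minus blank, normalised to the geometric mean of two housekeeping transcripts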. Scale: BNIP3L mRNA: higher = more BNIP3L transcript after knockdown.
In all, the deposit lists about 14,000 reagents; shown is an unselected part. Not all columns of the deposit are shown. No sequences are given here. Not given: the time to read-out.

Knock-down of METRN (meteorin, glial cell differentiation regulator) came out at: BNIP3L mRNA, set 1 = 0.142. For SLC2A8, the values are BNIP3L mRNA, set 1 = 0.122. FCSK (fucose kinase) showed BNIP3L mRNA, set 1 = 0.179. For CREB3 (cAMP responsive element binding protein 3), the entry reads BNIP3L mRNA, set 1 = 0.0845. TLX3 (T cell leukemia homeobox 3) scored BNIP3L mRNA, set 1 = 0.169. CACNB3 (calcium voltage-gated channel auxiliary subunit beta 3) gave BNIP3L mRNA, set 1 = 0.346.

With knock-down of THBS2 (thrombospondin 2) the results were BNIP3L mRNA, set 1 = 0.106. APOA1 (apolipoprotein A1) scored BNIP3L mRNA, set 1 = 0.0923. Silencing of ZCCHC14 (zinc finger CCHC-type containing 14) gave: BNIP3L mRNA, set 1 = 0.103. Silencing of ALG9 (ALG9 alpha-1,2-mannosyltransferase) came out at: BNIP3L mRNA, set 1 = 0.113. With knock-down of KCNIP1 (potassium voltage-gated channel interacting protein 1), the record shows BNIP3L mRNA, set 1 = 0.0944. ATP1B2 (ATPase Na+/K+ transporting subunit beta 2) scored BNIP3L mRNA, set 1 = 0.0622.

Already shown: entries from further up.
TLX3 (T cell leukemia homeobox 3): BNIP3L mRNA, set 1 = 0.169
CACNB3 (calcium voltage-gated channel auxiliary subunit beta 3): BNIP3L mRNA, set 1 = 0.346
